The experiment concerns the target Myc-BuGZ (Neurospora crassa) (UniProt Q7S5E3). The experiment can be described thus: co-IP; anti-c-Myc monoclonal antibody and protein G beads on N. crassa mycelium extracts (2 mg/mL total protein; 50 mM HEPES pH 7.4, 137 mM NaCl, 10% glycerol), 4°C; western blot for endogenous Bub3.

Chains of the proteins cited; added tags and fusions are not shown. Lines headed by an entry give the natural chain unless they say otherwise; changes in a name come on top.
UniProt Q7S5E3: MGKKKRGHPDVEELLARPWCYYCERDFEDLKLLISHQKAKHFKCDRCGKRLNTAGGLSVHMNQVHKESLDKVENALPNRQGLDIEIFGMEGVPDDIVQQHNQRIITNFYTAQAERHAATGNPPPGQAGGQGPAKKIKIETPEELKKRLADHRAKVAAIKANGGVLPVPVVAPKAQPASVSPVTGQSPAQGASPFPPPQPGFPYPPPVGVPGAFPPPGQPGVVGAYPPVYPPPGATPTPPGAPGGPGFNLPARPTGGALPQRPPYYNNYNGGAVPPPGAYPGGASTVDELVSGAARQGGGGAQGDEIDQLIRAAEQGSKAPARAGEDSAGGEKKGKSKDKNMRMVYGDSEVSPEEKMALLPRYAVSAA
UniProt Q7SEI1: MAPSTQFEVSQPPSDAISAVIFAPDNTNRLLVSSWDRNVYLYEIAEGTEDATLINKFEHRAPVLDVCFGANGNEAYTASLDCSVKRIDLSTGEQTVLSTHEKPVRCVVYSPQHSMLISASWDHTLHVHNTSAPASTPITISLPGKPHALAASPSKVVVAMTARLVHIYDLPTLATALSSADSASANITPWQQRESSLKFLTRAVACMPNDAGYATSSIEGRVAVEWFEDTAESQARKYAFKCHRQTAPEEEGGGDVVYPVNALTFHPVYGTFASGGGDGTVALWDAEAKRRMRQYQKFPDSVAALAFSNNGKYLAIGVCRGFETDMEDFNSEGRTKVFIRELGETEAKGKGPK

Results are given in words; binding and its absence hold for the method and conditions named. Binding seen in cells or lysates may run through a third protein. Binding calls can cover weak binding; strength is not graded here.

For Bub3 (from UniProt Q7SEI1), the binding result is “binds”.

These data come from paper PMC9203020.
